Taken from: PubChem BioAssay AID1159584 (Peter MacCallum Cancer Centre, 2016)

- Assay: 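Genes whose loss is lethal only together with E-cadherin loss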 (primary screen)
- System: human MCF10A breast epithelial cells, parental and CDH1-null
- Reagents: siRNA against human genes
- Read-out: 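ATP luminescence (CellTiter-Glo) viability per line relative to mean mock wells over all plates, and the ratio of CDH1-null to parental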
- Direction: CDH1-null / parental viability ratio: higher = CDH1-null cells survive relatively better than parental; CDH1-null viability vs mock: higher = more viable CDH1-null cells
- Units: CDH1-null viability vs mock in fraction of mock
Shown is one part, drawn at random, of about 18,000 reagents. Not all columns of the deposit are shown. The record does not give: the amount of reagent, the time to read-out.

For CNKSR3 (CNKSR family member 3), what does the deposit list?
CDH1-null / parental viability ratio: 0.9; CDH1-null viability vs mock: 0.73

What did the screen give for WASHC4 (WASH complex subunit 4)?
CDH1-null / parental viability ratio: 1.05; CDH1-null viability vs mock: 0.64

Which result is listed for COPS8 (COP9 signalosome subunit 8)?
CDH1-null / parental viability ratio: 0.84; CDH1-null viability vs mock: 0.72

What is on record for METTL8 (methyltransferase 8, tRNA N3-cytidine)?
CDH1-null / parental viability ratio: 0.91; CDH1-null viability vs mock: 0.96

With MRPS18C (mitochondrial ribosomal protein S18C), what was measured?
CDH1-null / parental viability ratio: 0.77; CDH1-null viability vs mock: 0.3

For CSNK1G3 (casein kinase 1 gamma 3), how do the results read?
CDH1-null / parental viability ratio: 0.98; CDH1-null viability vs mock: 0.97

2 of these entries in another layout.
{"target": "METTL8 (methyltransferase 8, tRNA N3-cytidine)", "CDH1-null / parental viability ratio": 0.91, "CDH1-null viability vs mock": 0.96}
{"target": "MRPS18C (mitochondrial ribosomal protein S18C)", "CDH1-null / parental viability ratio": 0.77, "CDH1-null viability vs mock": 0.3}

More reagents follow:
What is on record for INSYN2A (inhibitory synaptic factor 2A)?
CDH1-null / parental viability ratio: 0.96; CDH1-null viability vs mock: 0.88

How did the screen score VN1R1 (vomeronasal 1 receptor 1)?
CDH1-null / parental viability ratio: 0.81; CDH1-null viability vs mock: 0.64

Which result is listed for BLOC1S1 (biogenesis of lysosomal organelles complex 1 subunit 1)?
CDH1-null / parental viability ratio: 1.07; CDH1-null viability vs mock: 0.95

For TBXT (T-box transcription factor T), what does the deposit list?
CDH1-null / parental viability ratio: 0.92; CDH1-null viability vs mock: 0.96

With MORN1 (MORN repeat containing 1), how do the results read?
CDH1-null / parental viability ratio: 1.21; CDH1-null viability vs mock: 0.94

With DKK1 (dickkopf Wnt signaling pathway inhibitor 1), what does the deposit list?
CDH1-null / parental viability ratio: 1.16; CDH1-null viability vs mock: 1

How did the screen score AVPR2 (arginine vasopressin receptor 2)?
CDH1-null / parental viability ratio: 0.95; CDH1-null viability vs mock: 0.8

With DEFB113 (defensin beta 113), what does the deposit list?
CDH1-null / parental viability ratio: 0.69; CDH1-null viability vs mock: 0.44
